Shown are survivors of the treated group in tumour-free mice. Survivors were counted at the toxicity check, usually on the fifth day, unless a day is given; later deaths do not show. Schedules are NCI's codes, read here as Q, the interval in days (D) or hours (H), X, the number of doses.
System: CD2F1 mice, nontumored, toxicity/survival
Assay: NCI In Vivo Anticancer Drug Screen. Data for tumor model Nontumored Animals (Toxicity Test) in CD2F1 (CDF1) mice

Compound: COc1cc([C@@H]2c3cc4c(cc3[C@@H](OC3OC5COC(C)OC5C(O)C3O)[C@H]3COC(=O)[C@H]23)OCO4)cc(OC)c1O (stereo not given in full)
- survivor count (dose: 1.0 mg/kg/injection, schedule: Q03HX008 (ip), vehicle: other): 8 of 8
- survivor count (dose: 1.0 mg/kg/injection, schedule: Q03HX016 (ip), vehicle: other): 8 of 8
- survivor count (dose: 1.0 mg/kg/injection, schedule: Q03HX024 (ip), vehicle: other): 7 of 8
- survivor count (dose: 2.0 mg/kg/injection, schedule: Q01DX009 (ip), vehicle: other): 8 of 8
- survivor count (dose: 2.0 mg/kg/injection, schedule: Q01DX009 (sc), vehicle: other): 8 of 8
- survivor count (dose: 2.0 mg/kg/injection, schedule: Q03HX008 (ip), vehicle: other): 7 of 8
- survivor count (dose: 2.0 mg/kg/injection, schedule: Q03HX016 (ip), vehicle: other): 8 of 8
- survivor count (dose: 2.0 mg/kg/injection, schedule: Q03HX024 (ip), vehicle: other): 8 of 8
- survivor count (dose: 4.0 mg/kg/injection, schedule: Q01DX009 (ip), vehicle: other): 8 of 8
- survivor count (dose: 4.0 mg/kg/injection, schedule: Q01DX009 (oral), vehicle: Klucel (hydroxypropylcellulose) (HPC)): 8 of 8
- survivor count (dose: 4.0 mg/kg/injection, schedule: Q01DX009 (sc), vehicle: other): 8 of 8
- survivor count (dose: 4.0 mg/kg/injection, schedule: Q03HX008 (ip), vehicle: other): 8 of 8
- survivor count (dose: 4.0 mg/kg/injection, schedule: Q03HX008 (oral), vehicle: Klucel (hydroxypropylcellulose) (HPC)): 8 of 8
- survivor count (dose: 4.0 mg/kg/injection, schedule: Q03HX016 (ip), vehicle: other): 8 of 8
- survivor count (dose: 4.0 mg/kg/injection, schedule: Q03HX016 (oral), vehicle: Klucel (hydroxypropylcellulose) (HPC)): 8 of 8
- survivor count (dose: 4.0 mg/kg/injection, schedule: Q03HX024 (ip), vehicle: other): 8 of 8
- survivor count (dose: 4.0 mg/kg/injection, schedule: Q03HX024 (oral), vehicle: Klucel (hydroxypropylcellulose) (HPC)): 7 of 8
- survivor count (dose: 5.0 mg/kg/injection, schedule: Q04DX002 (ip), vehicle: suspension in saline): 4 of 4
- survivor count (dose: 5.0 mg/kg/injection, schedule: Q04DX003 (ip), vehicle: saline with Tween-80): 4 of 4
- survivor count (dose: 8.0 mg/kg/injection, schedule: Q01DX001 (ip), vehicle: other): 8 of 8
- survivor count (dose: 8.0 mg/kg/injection, schedule: Q01DX001 (sc), vehicle: other): 8 of 8
- survivor count (dose: 8.0 mg/kg/injection, schedule: Q01DX009 (ip), vehicle: other): 8 of 8
- survivor count (dose: 8.0 mg/kg/injection, schedule: Q01DX009 (oral), vehicle: Klucel (hydroxypropylcellulose) (HPC)): 8 of 8
- survivor count (dose: 8.0 mg/kg/injection, schedule: Q01DX009 (sc), vehicle: other): 8 of 8
- survivor count (dose: 8.0 mg/kg/injection, schedule: Q03HX008 (ip), vehicle: other): 1 of 8
- survivor count (dose: 8.0 mg/kg/injection, schedule: Q03HX008 (oral), vehicle: Klucel (hydroxypropylcellulose) (HPC)): 8 of 8
- survivor count (dose: 8.0 mg/kg/injection, schedule: Q03HX016 (ip), vehicle: other): 1 of 8
- survivor count (dose: 8.0 mg/kg/injection, schedule: Q03HX016 (oral), vehicle: Klucel (hydroxypropylcellulose) (HPC)): 8 of 8
- survivor count (dose: 8.0 mg/kg/injection, schedule: Q03HX024 (ip), vehicle: other): 2 of 8
- survivor count (dose: 8.0 mg/kg/injection, schedule: Q03HX024 (oral), vehicle: Klucel (hydroxypropylcellulose) (HPC)): 7 of 8
- survivor count (dose: 8.0 mg/kg/injection, schedule: Q04DX003 (ip), vehicle: other): 8 of 8
- survivor count (dose: 8.0 mg/kg/injection, schedule: Q04DX003 (ip), vehicle: saline): 4 of 4
- survivor count (dose: 8.0 mg/kg/injection, schedule: Q08DX002 (ip), vehicle: other): 8 of 8
- survivor count (dose: 10.0 mg/kg/injection, schedule: Q04DX002 (ip), vehicle: suspension in saline): 4 of 4
- survivor count (dose: 10.0 mg/kg/injection, schedule: Q04DX003 (ip), vehicle: saline with Tween-80): 4 of 4
- survivor count (dose: 16.0 mg/kg/injection, schedule: Q01DX001 (ip), vehicle: other): 8 of 8
- survivor count (dose: 16.0 mg/kg/injection, schedule: Q01DX001 (sc), vehicle: other): 8 of 8
- survivor count (dose: 16.0 mg/kg/injection, schedule: Q01DX009 (ip), vehicle: other): 8 of 8
- survivor count (dose: 16.0 mg/kg/injection, schedule: Q01DX009 (oral), vehicle: Klucel (hydroxypropylcellulose) (HPC)): 7 of 8
- survivor count (dose: 16.0 mg/kg/injection, schedule: Q01DX009 (sc), vehicle: other): 8 of 8
- survivor count (dose: 16.0 mg/kg/injection, schedule: Q03HX008 (ip), vehicle: other): 2 of 8
- survivor count (dose: 16.0 mg/kg/injection, schedule: Q03HX008 (oral), vehicle: Klucel (hydroxypropylcellulose) (HPC)): 7 of 8
- survivor count (dose: 16.0 mg/kg/injection, schedule: Q03HX016 (ip), vehicle: other): 2 of 8
- survivor count (dose: 16.0 mg/kg/injection, schedule: Q03HX016 (oral), vehicle: Klucel (hydroxypropylcellulose) (HPC)): 7 of 8
- survivor count (dose: 16.0 mg/kg/injection, schedule: Q03HX024 (ip), vehicle: other): 0 of 8
- survivor count (dose: 16.0 mg/kg/injection, schedule: Q03HX024 (oral), vehicle: Klucel (hydroxypropylcellulose) (HPC)): 8 of 8
- survivor count (dose: 16.0 mg/kg/injection, schedule: Q04DX003 (ip), vehicle: other): 8 of 8
- survivor count (dose: 16.0 mg/kg/injection, schedule: Q04DX003 (ip), vehicle: saline): 4 of 4
- survivor count (dose: 16.0 mg/kg/injection, schedule: Q08DX002 (ip), vehicle: other): 8 of 8
- survivor count (dose: 20.0 mg/kg/injection, schedule: Q04DX002 (ip), vehicle: suspension in saline): 4 of 4
- survivor count (dose: 20.0 mg/kg/injection, schedule: Q04DX003 (ip), vehicle: saline with Tween-80): 4 of 4
- survivor count (dose: 32.0 mg/kg/injection, schedule: Q01DX001 (ip), vehicle: other): 8 of 8
- survivor count (dose: 32.0 mg/kg/injection, schedule: Q01DX001 (oral), vehicle: Klucel (hydroxypropylcellulose) (HPC)): 8 of 8
- survivor count (dose: 32.0 mg/kg/injection, schedule: Q01DX001 (sc), vehicle: other): 8 of 8
- survivor count (dose: 32.0 mg/kg/injection, schedule: Q01DX009 (ip), vehicle: other): 7 of 8

Source: PubChem BioAssay AID188 (DTP/NCI, 2004)
